The source of these data is patent US20200283478A1.

No constants are given. Whether binding was seen depends on the method and setting. Binding can be weak; no strength is given.

The first assay concerns the target PCSK9Δhelix (human). Description: phage competition ELISA. (In an ELISA, binding on a coated surface is turned into a signal by an enzyme label.)
Regarding TVFTSWEEYLDWVGSGDLMPWNLVRIGLLR (Ac-; -NH2) [Compound 20], the binding result was “binds”.
Still for that read-out and setting: the result for SGCRLPWNLQRIGLPC [K9gvpep4] reads “binds”.
Take TVFTSWEEYLDWVGSGCRLPWNLQRIGLPC (Ac-; -NH2; disulfide) [Compound 19]: the binding result is on record as “binds”.
Same read-out and setting: the result for SGDLMPWNLVRIGLLR [K9gvpep7] reads “binds”.

For a further assay, the target named is PCSK9Δhelix (human). Description: Ab20 TR-FRET competition and SPR. (Time-resolved FRET reads energy transfer from a long-lived donor to a nearby acceptor.)
PWNLVRIGLLR (Ac-; -NH2) [Compound 52]: the binding result is given as “binds”.
Same read-out and setting: to MPWNLVRIGLLR (Ac-; -NH2) [Compound 51] belongs “binds”; to LMPWNLVRIGLLR (Ac-; -NH2) [Compound 50], “binds”.

Another assay deals with PCSK9Δhelix (human). Kind of assay: phage spot ELISA.
With TAFTSWEEYLDWVGSGPHSYWLDRVQ [SEQ ID NO 332], the binding result is “binds”.
Still for that read-out and setting: the result for TAFTSWEEYLDWVGSGNPTYWLTRIS [SEQ ID NO 331] reads “binds”; that for TAFTSWEEYLDWVGSGNVRCYRDVPSCS [SEQ ID NO 329], “binds”.
Still for that read-out and setting: the result for TAFTSWEEYLDWVGSGEDVVCYGRVDYMPLCV [SEQ ID NO 330] reads “binds”.
Same read-out and setting: to TAFTSWEEYLDWVGSGACLNHFVSGNMIRC [SEQ ID NO 327] belongs “binds”.
As to TAFTSWEEYLDWVGSGCVKVGLSWIGDCNS [SEQ ID NO 334], the binding entry is recorded as “binds”.
On the same count and under the same terms, to TAFTSWEEYLDWVGSGQCYPWCRL [SEQ ID NO 338] belongs “binds”; to TAFTSWEEYLDWVGSGDCNLWGDDGKYRLCF [SEQ ID NO 333], “binds”; to TAFTSWEEYLDWVGSGSYRGAWSVFGGSTD [SEQ ID NO 336], “binds”.
Same read-out and setting: to TAFTSWEEYLDWVGSGGVLGVGGMWIA [SEQ ID NO 335] belongs “binds”.
TAFTSWEEYLDWVGSGCPFYDWRCSDFS [SEQ ID NO 328]: the binding entry was “binds”.

The next assay concerns the target PCSK9Δhelix (human). Kind of assay: SPR.
As to SGDLMPWNLVRIGLLR [Compound 28], the binding entry is “binds”.
TVFTSWEEYLDWVGSGCWNLKRIGSQGC (Ac-; -NH2; disulfide C17-C28) [Compound 2]: the binding entry is listed as “binds”.
Still for that read-out and setting: to DLMPWNLVRIGLAR (Ac-; -NH2) [Compound 55] belongs “binds”; to TVFTSWEEYLDWVGSGDLMPWNLVRIGLLR (Ac-; -NH2) [Compound 20], “binds”.
On the same count and under the same terms, the result for SGSGCRLPWNLQRIGLPC (FAM (5-carboxyfluorescein) at N-terminus; -NH2; disulfide) [Compound 34] reads “binds”; that for FCLWNLKRIGAQCWF (Ac-; -NH2; disulfide) [Compound 96], “binds”.
On the same count and under the same terms, the result for SGSGCFIPWNLQRIGLLC (FAM (5-carboxyfluorescein) at N-terminus; -NH2; disulfide) [Compound 33] reads “binds”; that for TVFTSWEEYLDWVGSGCRLPWNLQRIGLPC (Ac-; -NH2; disulfide) [Compound 19], “binds”.
In the case of CRLPWNLQRIGLPC (Ac-; -NH2; disulfide) [Compound 32], the binding result is reported as “binds”.
CRLPWNLARIGLPC (Ac-; -NH2; disulfide) [Compound 73]: the binding result is “binds”.
For CFIPWNLQRIGLLC (Ac-; -NH2; disulfide) [Compound 31], the binding result is recorded as “binds”.
The same measure, in the same setting: the result for ALMPWNLVRIGLLR (Ac-; -NH2) [Compound 45] reads “binds”; that for SPCRVGYTPC (Ac-; -NH2) [Compound 23], “binds”.
On the same count and under the same terms, to PWNLVRIGLLR (Ac-; -NH2) [Compound 52] belongs “binds”.
For the molecule SGCFIPWNLQRIGLLC (free N-terminus; -NH2; disulfide) [Compound 26], the binding result is on record as “binds”.
Turning to MPWNLVRIGLLR (Ac-; -NH2) [Compound 51], the binding entry is reported as “binds”.
Same read-out and setting: to LMPWNLVRIGLLR (Ac-; -NH2) [Compound 50] belongs “binds”.

The next assay has as its target PCSK9Δhelix (human). Kind of assay: TR-FRET competition, Ab20 as competitor.
Take CRLPWNLKRIGLPC (Ac-; -NH2; disulfide) [Compound 67]: the binding result is reported as “binds”.
As for DLMPWNLVRIGLLR (Ac-; -NH2) [Compound 35], the binding result is on record as “binds”.
Still for that read-out and setting: the result for TVFTSWEEYLDWVGSGGCRLPWNLQRIGLPC (Ac-; -NH2; disulfide) [Compound 25] reads “binds”; that for TVFTSWEEYLDWVGSGGCFLPWNLQRIGLLC (Ac-; -NH2; disulfide) [Compound 38], “binds”; that for TVFTSWEEYLDWVGSGDLMPWNLVRIGLLR (Ac-; -NH2) [Compound 20], “binds”.
Still for that read-out and setting: the result for TVFTSWEEYLDWVGSGKLWNLGRV (Ac-; -NH2) [Compound 1] reads “binds”; that for TVFTSWEEYLDWVGSGKLWNL (Ac-; -NH2) [Compound 6], “binds”.
On the same count and under the same terms, the result for TVFTSWEEYLDWVGSGKLWN (Ac-; -NH2) [Compound 7] reads “binds”; that for TVFTSWEEYLDWVGSGKLWNLG (Ac-; -NH2) [Compound 5], “binds”.
For MCLWNLKRIGSQCEY (Ac-; -NH2; disulfide) [Compound 63], the binding entry is “binds”.
On the same count and under the same terms, to TVFTSWEEYLDWVGSGCRLPWNLQRIGLPC (Ac-; -NH2; disulfide) [Compound 19] belongs “binds”; to CRLPWNLQRIGLPC (Ac-; -NH2; disulfide) [Compound 32], “binds”; to TVFTSWEEYLDWVGSGGCWNLKRIGSQGC (Ac-; -NH2; disulfide) [Compound 14], “binds”.
Still for that read-out and setting: the result for GSGCWNLKRIGSQGC (Fmoc- at N-terminus; -NH2; disulfide) [Compound 98] reads “binds”; that for TVFTSWEEYLDWVGSGKLWNLGR (Ac-; -NH2) [Compound 4], “binds”; that for TVFTSWEEYLDWVGGSGCWNLKRIGSQGC (Ac-; -NH2; disulfide) [Compound 13], “binds”.
